No constants are given. Whether binding was seen depends on the method and setting. In cells and extracts the contact can be indirect. Here binding means that the protein was enriched with, or labelled near, the bait; the list need not be complete.
Molecular target: neuraminidase 1 (NEU1), endogenous (human (endogenous in HK-2 and in human kidney biopsies)) (UniProt Q99519)
Test: affinity purification with mass spectrometry; co-precipitates with NEU1 analysed by LC-MS/MS (Q Exactive HF, MaxQuant); cells not given

B1: TGFβ type I receptor ALK5, endogenous (receptor, UniProt P36897 34-503)
chain: LQCFCHLCTKDNFTCVTDGLCFVSVTETTDKVIHNSMCIAEIDLIPRDRPFVCAPSSKTGSVTTTYCCNQDHCNKIELPTTVKSSPGLGPVELAAVIAGPVCFVCISLMLMVYICHNRTVIHHRVPNEEDPSLDRPFISEGTTLKDLIYDMTTSGSGSGLPLLVQRTIARTIVLQESIGKGRFGEVWRGKWRGEEVAVKIFSSREERSWFREAEIYQTVMLRHENILGFIAADNKDNGTWTQLWLVSDYHEHGSLFDYLNRYTVTVEGMIKLALSTASGLAHLHMEIVGTQGKPAIAHRDLKSKNILVKKNGTCCIADLGLAVRHDSATDTIDIAPNHRVGTKRYMAPEVLDDSINMKHFESFKRADIYAMGLVFWEIARRCSIGGIHEDYQLPYYDLVPSDPSVEEMRKVVCEQKLRPNIPNRWQSCEALRVMAKIMRECWYANGAARLTALRIKKTLSQLSQQEGIKM
- binding: binds

Reference: paper PMC10043283, “Neuraminidase 1 promotes renal fibrosis development in male mice” (Nature Communications, 2023)
